# Reference: PubChem BioAssay AID1347423 (Functional Genomics Laboratory (NCATS/FGL), 2020)
# Among all 52,000 sequences or so, about 210 (0.4%) were called active.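 Rule for the calls: active = gene whose silencing raises cell survival under the drug, median off-target-corrected z-score across its silencing RNAs 2 or more; inactive = the rest.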 The list shows a part of the results.
# Assay: Resistance to Poly (ADP-Ribose) Polymerase inhibitor: Gene Identification via Genome-wide siRNA Screen
# Details: mouse BRCA2 R2336H ES cells, olaparib, CellTiter-Glo viability; stronger effect = higher value
# How it was run: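 Mouse BRCA2 R2336H ES cells were reverse-transfected with siRNA (20 nM final), treated at 48 h with 500 nM olaparib, and read by CellTiter-Glo after 72 h. Scores: MAD-based z per siRNA, median per gene, seed off-target correction.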
row,Sequence,z-score
1,GGUGUUGUCUUACAUUAAUTT against Esam1,inactive: 2.58
2,GGUGGUUCUUUUAAAGUUUTT against Dlat,inactive: -0.379
3,CCGAGCUAGAUCAGCUAUUTT against Mertk,inactive: 0.0536
4,GGAGAUGAUCUUCUGAAAUTT against Klra17,inactive: 0.495
5,GGAAAGAGAAAACUUUAGCTT against Nme7,inactive: -0.469
6,GGAACUGAACCACUUCAAATT against 2010109I03Rik,inactive: -0.181
7,GGUGCUAGUGUAUGAAUUATT against 9830109N13Rik,inactive: 2.24
8,GGAAGAUGUGGCUUGUGUCTT against Ly6d,inactive: -2.03
9,CCUAUAUGGUACCACACUCTT against Olfr31,inactive: -0.234
10,GGACACACAGUGAUCAUAUTT against Fhl1,inactive: -1.88
11,CGAUGACUAUUUUUCUUGATT against Sgtb,inactive: 0.355
12,GGGCGAACACUCCAAAGAATT against 1810011K17Rik,inactive: -0.795
13,GCCCUUGAAGAUUUGAGGUTT against Cops8,inactive: -2.49
14,GCACAAGACUAACAAUACGTT against Spnb3,inactive: -0.423
15,GGGUGAAAAGGUUUCUGUCTT against Lactb,inactive: 0.863
16,GGAAUGUUGGAAUCAAUUGTT against Gcm1,inactive: 1.58
17,GUACAAGCCACUGGAUCUGTT against Smad6,inactive: 1.02
18,GGCAUGAUAGUGUAAUAACTT against Piga,inactive: 0.496
19,CGAAAAAUCAGAUUCCUCCTT against Coil,inactive: -0.83
20,GGACCUAUACCUGAAGCCUTT against Eef2,inactive: -0.974
21,GGCCAAUAUGUGCUGGUAUTT against Ihh,inactive: -1.39
22,GCGAUCCUGACUUGUUCAATT against Jmjd3,inactive: -0.103

row,Sequence,z-score
1,GGAUAAGCUUAUCAGCGUGTT against Stim1,inactive: 0.342
2,GGAAAGUUCAGAGGAGAGATT against Batf,inactive: -0.17
3,CCGUGUCUUAGGUGAUCACTT against H2-DMb1,inactive: -1.08
4,GGUUCCGAUUCUGUGGCAGTT against Chrm5,inactive: 1.18
5,GCUUUAUAAUCGGCUCUCCTT against Zdhhc6,inactive: -0.231
6,GCUAAUUUGACAAAGACGGTT against Bfsp2,inactive: 1.26
7,GCUUAUCGAAUUCUUCUCCTT against Tmem4,inactive: 0.421
8,GGAACUAGAGACACUGAUUTT against 1700024D23Rik,inactive: 0.948
9,GGAUCUUCGGGACACCUUUTT against Mylpf,inactive: -0.521
10,GGAAGAAAAGAAUUCUAUGTT against BC027174,inactive: 0.235
11,GGCCCUCACUCGUAUAUUUTT against Rhot1,inactive: -0.881
12,CCCAGGAGUCCGACUUUACTT against Kirrel2,inactive: -1.1
13,GGUAGACUGAACUUCAGCATT against 5430431G03Rik,inactive: -0.0988
14,GGGUUCCUCAGAGACUGAGTT against Esrra,inactive: -0.971
15,GGCGACACAAUAAGACAGATT against Wdr19,inactive: -1.11
16,GGACCUCAUCUACAGAAUGTT against Stk22a,inactive: 0.406
17,GGCCAGAGAGGAGAACUAATT against Zfp202,inactive: -0.381
18,CCUCUGCCCAUUAUCGAAGTT against BC034834,inactive: -0.363
19,GGGUAUUGAAUCAGGCAUCTT against Olfr628,inactive: -0.513
20,GGUCCCUAGCACUAUUUUUTT against Hes6,inactive: -0.919
21,GGAGAACAUUGCUAAAUGUTT against Slc34a2,inactive: 0.948
22,CCUGUAGAUUCAAUUAGAGTT against Vkorc1l1,inactive: -0.0634

row,Sequence,z-score
1,GGUGUACGUGAACAACUCCTT against Kcnmb4,inactive: -0.111
2,GCUUUUACUGUACCUCUUCTT against Tmc4,inactive: -0.0626
3,GGAGUGAGCAUUUACUUUGTT against 1110018G07Rik,inactive: -0.774
4,GCCAAAGCCUAGAGCCAAUTT against Olfr410,inactive: -1.57
5,GGUGUUUGGGAACAAGAUGTT against Eif2ak3,inactive: -0.00406
6,GGCCAGAUUACCAGCAAUATT against 1810009J06Rik,inactive: -0.757
7,GGCUUCGCUAACCAUAGUUTT against A230098A12Rik,inactive: -0.142
8,GGGCAUGUGAUAGAACAAUTT against Stoml1,inactive: -0.862
9,CGAGCAAUGUUAAAAAUGATT against 5033405K12Rik,inactive: -0.315
10,GGCAGAUUGACAGUUUACCTT against C920008G01Rik,inactive: 0.186
11,GGAUCAACCUAGAAGCUUGTT against 2610019A05Rik,inactive: 0.323
12,GGUAUGAUGAAAAUACACATT against Mmp1a,inactive: -0.428
13,GGAUUUGGAAAAAGUGUUUTT against Hprt1,inactive: 0.529
14,GGCUCAGCAGCAGAAACAATT against Txndc9,inactive: -1.27
15,GGAAGAUAACCAUUUUGAATT against ORF21,inactive: -0.523
16,CCUGGUACAAGGAACCAGUTT against Zim1,inactive: -1.61
17,GGCCUUUCAUGAAAGCUCATT against BC002236,inactive: -1.44
18,GCGAAGACUUCUUCUACAUTT against Lzts1,inactive: -0.393
19,GGCUUCACCAUUUUCAUAATT against P2rx5,inactive: -0.548
20,GGAAUCAAAUGGCGUAGGUTT against Thrap2,inactive: -0.37
21,CGUGAGUGUCCAUGUGACCTT against Slp,inactive: -0.799
22,GGUCAGAAGAAAAGACAAATT against 2610029K21Rik,inactive: -0.458
